Experiment [1] has as its target T1, Strep/FLAG-tagged IFT88 (UniProt Q13099).
T1 sequence: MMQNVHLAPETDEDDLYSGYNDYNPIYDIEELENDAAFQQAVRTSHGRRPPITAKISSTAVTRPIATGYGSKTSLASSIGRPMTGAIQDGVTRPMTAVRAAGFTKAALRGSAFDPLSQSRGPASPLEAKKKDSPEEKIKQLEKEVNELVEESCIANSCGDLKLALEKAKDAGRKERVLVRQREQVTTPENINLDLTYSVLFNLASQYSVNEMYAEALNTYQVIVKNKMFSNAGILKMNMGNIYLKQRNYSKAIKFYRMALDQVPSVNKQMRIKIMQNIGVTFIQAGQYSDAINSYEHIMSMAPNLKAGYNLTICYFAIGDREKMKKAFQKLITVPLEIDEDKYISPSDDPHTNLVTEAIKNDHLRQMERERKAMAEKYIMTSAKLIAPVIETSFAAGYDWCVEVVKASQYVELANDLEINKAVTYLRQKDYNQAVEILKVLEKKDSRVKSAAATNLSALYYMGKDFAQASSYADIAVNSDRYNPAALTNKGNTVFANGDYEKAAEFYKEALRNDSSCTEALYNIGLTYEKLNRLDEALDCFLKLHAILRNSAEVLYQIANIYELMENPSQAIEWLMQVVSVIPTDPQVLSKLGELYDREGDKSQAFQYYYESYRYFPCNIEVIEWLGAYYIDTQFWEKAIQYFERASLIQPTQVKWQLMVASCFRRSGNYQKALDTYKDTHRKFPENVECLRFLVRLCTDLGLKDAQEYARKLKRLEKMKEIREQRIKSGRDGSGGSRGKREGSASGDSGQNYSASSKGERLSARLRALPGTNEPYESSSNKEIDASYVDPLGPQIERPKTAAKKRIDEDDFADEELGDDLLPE
As to the kind of experiment: affinity purification with mass spectrometry; Strep-Tactin Superflow on lysates of HEK293T Cas9 control, TTC30B KO and TTC30A/B KO cells transfected with Strep/FLAG-tagged LCA5 or IFT88 (Strep/FLAG-RAF1 as control); Strep elution buffer; label-free LC-MS/MS; four biological replicates.

Chains of the proteins cited; added tags and fusions are not shown.
UniProt Q8IY31: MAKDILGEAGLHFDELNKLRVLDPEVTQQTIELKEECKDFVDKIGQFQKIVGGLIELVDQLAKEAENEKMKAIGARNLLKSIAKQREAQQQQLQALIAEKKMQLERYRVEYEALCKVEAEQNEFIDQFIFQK

Experiment [2] deals with T2, Strep/FLAG-tagged LCA5 (UniProt Q86VQ0).
T2 sequence: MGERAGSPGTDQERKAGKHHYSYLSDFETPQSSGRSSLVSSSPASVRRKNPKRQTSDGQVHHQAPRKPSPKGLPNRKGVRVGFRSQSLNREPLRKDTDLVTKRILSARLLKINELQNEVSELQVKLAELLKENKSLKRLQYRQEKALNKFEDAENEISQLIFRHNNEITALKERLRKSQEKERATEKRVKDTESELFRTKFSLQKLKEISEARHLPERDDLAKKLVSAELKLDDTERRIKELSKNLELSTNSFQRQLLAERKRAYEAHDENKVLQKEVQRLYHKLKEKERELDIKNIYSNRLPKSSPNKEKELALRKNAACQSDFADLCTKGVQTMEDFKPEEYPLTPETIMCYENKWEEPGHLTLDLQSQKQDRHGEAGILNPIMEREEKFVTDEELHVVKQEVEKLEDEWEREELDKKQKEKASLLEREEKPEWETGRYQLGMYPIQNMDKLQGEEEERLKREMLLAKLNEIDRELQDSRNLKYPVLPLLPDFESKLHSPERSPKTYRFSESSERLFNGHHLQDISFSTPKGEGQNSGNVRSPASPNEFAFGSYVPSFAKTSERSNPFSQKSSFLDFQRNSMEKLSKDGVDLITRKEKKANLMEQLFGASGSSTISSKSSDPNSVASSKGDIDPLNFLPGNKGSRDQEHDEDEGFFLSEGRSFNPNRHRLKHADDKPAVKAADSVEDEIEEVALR
The description is as above.

Results are given in words; binding and its absence hold for the method and conditions named. In cells and extracts the contact can be indirect. Here binding means that the protein was enriched with, or labelled near, the bait; the list need not be complete. Tags and fused reporters may be left off the sequences shown.

The values that follow come from paper PMC9319246.

With IFT20 (from UniProt Q8IY31 1-132), the binding result in experiment [1] and in experiment [2] was “binds” throughout.

B1: TTC30B (endogenous, untagged) (protein, UniProt Q8N4P2 1-665)
chain: MAGLSGAQIPDGEFTAVVYRLIRNARYAEAVQLLGGELQRSPRSRAGLSLLGYCYYRLQEFALAAECYEQLGQLHPELEQYRLYQAQALYKACLYAEATRVAFLLLDNPAYHSRVLRLQAAIKYSEGDLPGSRSLVEQLPSREGGEESGGENETDGQINLGCLLYKEGQYEAACSKFFAALQASGYQPDLSYNLALAYYSSRQYASALKHIAEIIERGIRQHPELGVGMTTEGIDVRSVGNTLVLHQTALVEAFNLKAAIEYQLRNYEAAQEALTDMPPRAEEELDPVTLHNQALMNMDARPTEGFEKLQFLLQQNPFPPETFGNLLLLYCKYEYFDLAADVLAENAHLIYKFLTPYLYDFLDAVITCQTAPEEAFIKLDGLAGMLTEVLRKLTIQVQEARHNRDDEAIKKAVNEYDETMEKYIPVLMAQAKIYWNLENYPMVEKIFRKSVEFCNDHDVWKLNVAHVLFMQENKYKEAIGFYEPIVKKHYDNILNVSAIVLANLCVSYIMTSQNEEAEELMRKIEKEEEQLSYDDPDKKMYHLCIVNLVIGTLYCAKGNYDFGISRVIKSLEPYNKKLGTDTWYYAKRCFLSLLENMSKHTIMLRDSVIQECVQFLEHCELHGRNIPAVIEQPLEEERMHVGKNTVTYESRQLKALIYEIIGWNI
With B1, the binding entry in experiment [1] and in experiment [2] was “binds” throughout.

B2: LCA5 (endogenous) (protein, UniProt Q86VQ0 1-697)
chain: T2 sequence
As for B2, the binding entry in experiment [1] is “binds”.

B3: IFT27 (protein, UniProt Q9BW83 1-186)
chain: MVKLAAKCILAGDPAVGKTALAQIFRSDGAHFQKSYTLTTGMDLVVKTVPVPDTGDSVELFIFDSAGKELFSEMLDKLWESPNVLCLVYDVTNEESFNNCSKWLEKARSQAPGISLPGVLVGNKTDLAGRRAVDSAEARAWALGQGLECFETSVKEMENFEAPFHCLAKQFHQLYREKVEVFRALA
As to B3, the binding entry in experiment [2] is given as “binds”.

B4: IFT57 (protein, UniProt Q9NWB7 1-429)
chain: MTAALAVVTTSGLEDGVPRSRGEGTGEVVLERGPGAAYHMFVVMEDLVEKLKLLRYEEEFLRKSNLKAPSRHYFALPTNPGEQFYMFCTLAAWLINKAGRPFEQPQEYDDPNATISNILSELRSFGRTADFPPSKLKSGYGEHVCYVLDCFAEEALKYIGFTWKRPIYPVEELEEESVAEDDAELTLNKVDEEFVEEETDNEENFIDLNVLKAQTYHLDMNETAKQEDILESTTDAAEWSLEVERVLPQLKVTIRTDNKDWRIHVDQMHQHRSGIESALKETKGFLDKLHNEITRTLEKISSREKYINNQLENLVQEYRAAQAQLSEAKERYQQGNGGVTERTRLLSEVMEELEKVKQEMEEKGSSMTDGAPLVKIKQSLTKLKQETVEMDIRIGIVEHTLLQSKLKEKSNMTRNMHATVIPEPATGFY
On to B4, for which the binding entry in experiment [2] is given as “binds”.

B5: IFT88 (endogenous) (protein, UniProt Q13099 1-824)
chain: T1 sequence
Take B5: the binding entry in experiment [2] is “binds”.

B6: IFT22 (protein, UniProt Q9H7X7 1-185)
chain: MLKAKILFVGPCESGKTVLANFLTESSDITEYSPTQGVRILEFENPHVTSNNKGTGCEFELWDCGGDAKFESCWPALMKDAHGVVIVFNADIPSHRKEMEMWYSCFVQQPSLQDTQCMLIAHHKPGSGDDKGSLSLSPPLNKLKLVHSNLEDDPEEIRMEFIKYLKSIINSMSESRDREEMSIMT
With B6, the binding entry in experiment [1] and in experiment [2] was “binds” each time.

B7: IFT74 (protein, UniProt Q96LB3 1-600)
chain: MASNHKSSAARPVSRGGVGLTGRPPSGIRPLSGNIRVATAMPPGTARPGSRGCPIGTGGVLSSQIKVAHRPVTQQGLTGMKTGTKGPQRQILDKSYYLGLLRSKISELTTEVNKLQKGIEMYNQENSVYLSYEKRAETLAVEIKELQGQLADYNMLVDKLNTNTEMEEVMNDYNMLKAQNDRETQSLDVIFTERQAKEKQIRSVEEEIEQEKQATDDIIKNMSFENQVKYLEMKTTNEKLLQELDTLQQQLDSQNMKKESLEAEIAHSQVKQEAVLLHEKLYELESHRDQMIAEDKSIGSPMEEREKLLKQIKDDNQEIASMERQLTDTKEKINQFIEEIRQLDMDLEEHQGEMNQKYKELKKREEHMDTFIETFEETKNQELKRKAQIEANIVALLEHCSRNINRIEQISSITNQELKMMQDDLNFKSTEVQKSQSTAQNLTSDIQRLQLDLQKMELLESKMTEEQHSLKSKIKQMTTDLEIYNDLPALKSSGEEKIKKLHQERMILSTHRNAFKKIMEKQNIEYEALKTQLQENETHSQLTNLERKWQHLEQNNFAMKEFIATKSQESDYQPIKKNVTKQIAEYNKTIVDALHSTSGN
In the case of B7, in experiment [2], the binding result is given as “binds”.
